# Reference: PubChem BioAssay AID2685 (National Center for Advancing Translational Sciences (NCATS), 2010)
# Several values for one entry are separate records, joined by “and”; a condition that tells them apart may be missing. Identical values can stand only once. This is one part of the list. Further columns of the screen follow, without active or inactive calls. Most of these compounds were active or inconclusive in the main read-out, so they are no random draw. The note in brackets gives the kind of curve behind each potency; many fits are weak.
# Experiment: qHTS Assay for Lipid Storage Modulators in Drosophila S3 Cells;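 on cell number change: cells counted by Cell Tracker Red CMTPX staining in the red channel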
# Settings: BODIPY lipid droplet fluorescence, 18-24 h; for cell number change: measured here: cell count max response, cells fed with added oleic acid
# Procedure, shortened: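 Drosophila S3 cells got compounds at several concentrations plus oleic acid (400 uM solution). Laser-scanning cytometry with 488 nm excitation read lipid droplets at 500-530 nm and cells at 575-640 nm. Percent activity was relative to 20 uM Triacsin C.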
# [1] = measured here: lipid fluorescence (Fed channel) AC50, cells fed with added oleic acid
# [2] = measured here: cell number channel AC50, cells fed with added oleic acid
Compound,cell number change,AC50 [1],AC50 [2]
Cn1c(NCc2cccs2)nc2ccccc21,11.7%,"0.82 µM [falling, full curve]",
c1ccc(CN2CCN(c3nc(-c4ccccc4)nc4ccccc34)CC2)cc1,26.5%,,"0.731 µM [rising, full curve, poor fit]"
O=C(CN1C(=O)C2C3C=CC(C3)C2C1=O)NCc1ccccc1 (centres undefined),-25%,"25.9 µM [falling, single point]",
CCN1CCN(CCCNC(=O)c2cn(CCOC)c(=O)c3c2c2ccccc2n3C)CC1,-82.3%,,"29.1 µM [falling, single point]"
Cc1ccccc1C(=O)Nn1cnc2ccccc2c1=O,-15.1%,"16.4 µM [falling, single point]",
COc1cc(/C=N/NC(=O)c2cccnc2)ccc1OS(=O)(=O)c1cc(C)ccc1C,56.5%,,"20.6 µM [rising, single point]"
CCOC(=O)c1c(-c2ccccc2)oc2ccc(O)c(CN(C)C)c12,-15.6%,,
NC(=O)c1cc([N+](=O)[O-])ccc1NCc1ccc(C(=O)O)cc1,13.6%,"4.61 µM [rising, single point]","6.51 µM [falling, single point]"
Cc1ccccc1NC(=O)CSc1nnc2ccc(-c3cccnc3)nn12,-47%,"18.4 µM [rising, partial curve]","29.1 µM [falling, single point]"
CC(C)c1csc2nc3n(c(=O)c12)CCCCC3,-47.2%,"1.64 µM [falling, partial curve]","29.1 µM [falling, single point]"
O=c1[nH]c(/C=C/c2ccccn2)nc2ccccc12,6.61%,"29.1 µM [rising, single point]",
OC(CNCc1ccccc1)c1ccccc1 (centres undefined),-47.4%,"25.9 µM [falling, partial curve]","25.9 µM [falling, single point]"
CC(=O)c1sc(NC(=O)CS(=O)(=O)c2ccccc2)nc1C,71%,,"9.2 µM [rising, partial curve]"
CSc1ccc(C2c3[nH]c4ccccc4c3CCN2C(=O)c2cc(C)n(C)n2)cc1 (centres undefined),-20.6%,"11.6 µM [falling, partial curve, poor fit]",
CCN1C/C(=C/c2ccc(OC)c(O)c2)C(=O)/C(=C/c2ccc(OC)c(O)c2)C1,5.95%,"2.06 µM [rising, partial curve]",
CCN1CCN(Cc2ccc(NC(=O)c3ccc(C)c(NC(=O)C(=O)c4c[nH]c5ccccc45)c3)cc2C(F)(F)F)CC1,-26.5% and -15.2%,"1.46 µM [falling, partial curve]",
Cc1ccc(C(=O)CSc2nnc(-c3cccs3)n2C)o1,,"14.6 µM [rising, single point]",
COc1ccc(CC(=O)Nc2ccc(/C(C)=N/NC(=O)c3ccc(OC)cc3OC)cc2)cc1,-21.8%,,"0.13 µM [falling, full curve, poor fit]"
CCOC(=O)CCSc1nc(C)cc(C(F)(F)F)c1C#N,-1.49%,"0.0058 µM [falling, full curve, poor fit]",

Compound,cell number change,AC50 [1],AC50 [2]
CC(=O)Nc1ccc(C(=O)N/C(=C/c2ccccc2)C(=O)N2CCCCC2)cc1,2.56%,,
Cn1c(C(=O)NCC2CCCO2)cc2oc3ccccc3c21 (centres undefined),,"1.16 µM [falling, partial curve]",
Cc1ccc(CSCCNS(C)(=O)=O)cc1,0.336%,,
CCOc1cc(/C=C/c2ccc3cccc([N+](=O)[O-])c3n2)ccc1O,5.49%,"25.9 µM [rising, single point]","0.461 µM [falling, partial curve, poor fit]"
CCc1cc2c(=O)n3c(nc2s1)-c1[nH]c2ccc(OC)cc2c1CC3,-7.45%,"18.4 µM [rising, single point]",
COc1ccccc1OCCN1C(=O)S/C(=C\c2ccco2)C1=O,-10.7%,,
COCCn1c(-c2ccc(F)cc2)nc2cccnc21,9.93%,"0.103 µM [rising, full curve, poor fit]","1.64 µM [rising, partial curve]"
CCOc1ccc(N(C(=O)c2snc(C(N)=O)c2N)C(C(=O)NCC2CCCO2)c2ccco2)cc1 (centres undefined),29.4%,"0.13 µM [rising, full curve, poor fit]",
CN(C)c1ccc(C(C(=O)NCC2CCCO2)N(Cc2ccccc2)C(=O)c2snc(C(N)=O)c2N)cc1 (centres undefined),1.28%,,"2.59 µM [rising, partial curve]"
CCCn1c(=O)c2ccccc2n2c(SCCOc3ccccc3F)nnc12,,"2.91 µM [rising, partial curve]","2.31 µM [rising, partial curve]"
Cc1ccccc1NC(=O)Cc1nnc(SCC(=O)NC2CCCCC2)n1C,,"6.51 µM [falling, single point]",
O=c1c2c(nc3cc(-c4cccc(Cl)c4)[nH]n13)CCCC2,-42.4%,"18.4 µM [falling, partial curve]","14.6 µM [falling, partial curve]"
Cn1c(N2CCCC2)nc2c1c(=O)n(Cc1cccc(F)c1)c(=O)n2C,-8.77%,"1.03 µM [rising, single point]",
CC(=O)NC(O)C(=O)c1ccco1 (centres undefined),-15.9%,,"6.51 µM [rising, single point]"
COc1cc2nc(CC(C)C)n(NC(=O)c3ccccc3)c(=O)c2cc1OC,13%,"3.66 µM [rising, single point]",
O=C(NCCCCCNC(=O)c1ccccn1)c1ccccn1,20%,"1.64 µM [rising, full curve, poor fit]",
CCN(CC)S(=O)(=O)c1ccc(N2CC(C(=O)NCc3cccnc3)CC2=O)cc1 (centres undefined),-0.42%,,
CCn1c(C)nc2cc(C(=O)N=Nc3c(O)[nH]c4ccccc34)ccc21,500%,"4.11 µM [rising, partial curve]",
O=S(=O)(CCN1CCN(C(c2ccccc2)c2ccccc2)CC1)C(F)(F)F,-11%,,
